No constants are given. Whether binding was seen depends on the method and setting. In cells and extracts the contact can be indirect. Some results given as binding are weak or reduced against the parent protein; the word gives no strength.

Protein sequences, listed by entry. Tags and fused reporters are not part of them. Lines headed by an entry give the natural chain unless they say otherwise; changes in a name come on top. Chains listed by the source or under a name are the forms on record and can include a tag or linker.
UniProt Q01105: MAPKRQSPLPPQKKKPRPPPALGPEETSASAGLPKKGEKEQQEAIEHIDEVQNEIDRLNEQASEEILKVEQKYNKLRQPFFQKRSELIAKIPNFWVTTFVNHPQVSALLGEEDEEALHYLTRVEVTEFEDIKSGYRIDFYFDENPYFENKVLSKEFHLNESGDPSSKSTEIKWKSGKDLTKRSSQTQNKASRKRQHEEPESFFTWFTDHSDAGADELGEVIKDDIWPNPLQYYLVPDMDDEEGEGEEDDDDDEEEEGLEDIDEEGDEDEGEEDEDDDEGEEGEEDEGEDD
FLAG-SETBP1 p.(Leu957Pro) (Q9Y6X0-1, form named): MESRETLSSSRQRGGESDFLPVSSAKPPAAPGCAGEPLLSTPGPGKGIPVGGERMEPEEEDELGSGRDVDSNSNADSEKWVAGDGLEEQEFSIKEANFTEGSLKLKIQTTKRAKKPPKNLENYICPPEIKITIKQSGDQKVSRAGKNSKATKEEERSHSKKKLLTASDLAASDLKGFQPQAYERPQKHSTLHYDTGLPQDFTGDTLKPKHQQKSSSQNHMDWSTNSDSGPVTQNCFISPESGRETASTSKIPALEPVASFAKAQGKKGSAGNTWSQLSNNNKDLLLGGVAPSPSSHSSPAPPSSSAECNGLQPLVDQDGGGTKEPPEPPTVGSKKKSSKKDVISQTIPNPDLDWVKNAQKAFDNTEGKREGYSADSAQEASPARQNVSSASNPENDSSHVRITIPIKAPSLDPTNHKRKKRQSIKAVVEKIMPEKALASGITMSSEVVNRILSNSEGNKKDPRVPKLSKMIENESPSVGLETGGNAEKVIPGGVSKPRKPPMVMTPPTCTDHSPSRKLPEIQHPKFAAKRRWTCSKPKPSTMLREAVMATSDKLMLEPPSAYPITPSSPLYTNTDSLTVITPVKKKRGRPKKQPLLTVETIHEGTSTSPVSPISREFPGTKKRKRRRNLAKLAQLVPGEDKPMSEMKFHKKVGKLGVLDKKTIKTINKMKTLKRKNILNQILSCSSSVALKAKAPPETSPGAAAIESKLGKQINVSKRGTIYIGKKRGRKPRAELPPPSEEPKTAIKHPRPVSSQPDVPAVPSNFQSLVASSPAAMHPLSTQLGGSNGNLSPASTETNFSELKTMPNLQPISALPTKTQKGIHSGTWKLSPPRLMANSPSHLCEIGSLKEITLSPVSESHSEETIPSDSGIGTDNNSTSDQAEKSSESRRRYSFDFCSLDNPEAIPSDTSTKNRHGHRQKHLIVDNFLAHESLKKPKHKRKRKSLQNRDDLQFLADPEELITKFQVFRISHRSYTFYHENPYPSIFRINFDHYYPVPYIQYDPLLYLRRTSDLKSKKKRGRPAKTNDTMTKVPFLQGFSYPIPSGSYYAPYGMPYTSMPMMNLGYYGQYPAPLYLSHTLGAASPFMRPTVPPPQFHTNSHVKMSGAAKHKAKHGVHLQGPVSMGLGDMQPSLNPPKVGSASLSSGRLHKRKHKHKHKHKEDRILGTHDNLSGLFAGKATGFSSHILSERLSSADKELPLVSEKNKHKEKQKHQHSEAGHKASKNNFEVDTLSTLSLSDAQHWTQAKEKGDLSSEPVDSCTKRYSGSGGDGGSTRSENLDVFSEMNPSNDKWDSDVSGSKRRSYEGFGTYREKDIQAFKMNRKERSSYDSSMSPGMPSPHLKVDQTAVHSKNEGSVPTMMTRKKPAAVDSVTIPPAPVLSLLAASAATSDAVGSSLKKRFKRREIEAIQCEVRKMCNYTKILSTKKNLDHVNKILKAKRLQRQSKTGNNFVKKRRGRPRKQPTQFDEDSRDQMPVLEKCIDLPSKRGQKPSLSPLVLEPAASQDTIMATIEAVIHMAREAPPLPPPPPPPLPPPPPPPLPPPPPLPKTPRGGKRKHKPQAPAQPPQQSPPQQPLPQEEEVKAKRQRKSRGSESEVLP
FLAG-SETBP1 p.(Thr962del) (Q9Y6X0-1, form named): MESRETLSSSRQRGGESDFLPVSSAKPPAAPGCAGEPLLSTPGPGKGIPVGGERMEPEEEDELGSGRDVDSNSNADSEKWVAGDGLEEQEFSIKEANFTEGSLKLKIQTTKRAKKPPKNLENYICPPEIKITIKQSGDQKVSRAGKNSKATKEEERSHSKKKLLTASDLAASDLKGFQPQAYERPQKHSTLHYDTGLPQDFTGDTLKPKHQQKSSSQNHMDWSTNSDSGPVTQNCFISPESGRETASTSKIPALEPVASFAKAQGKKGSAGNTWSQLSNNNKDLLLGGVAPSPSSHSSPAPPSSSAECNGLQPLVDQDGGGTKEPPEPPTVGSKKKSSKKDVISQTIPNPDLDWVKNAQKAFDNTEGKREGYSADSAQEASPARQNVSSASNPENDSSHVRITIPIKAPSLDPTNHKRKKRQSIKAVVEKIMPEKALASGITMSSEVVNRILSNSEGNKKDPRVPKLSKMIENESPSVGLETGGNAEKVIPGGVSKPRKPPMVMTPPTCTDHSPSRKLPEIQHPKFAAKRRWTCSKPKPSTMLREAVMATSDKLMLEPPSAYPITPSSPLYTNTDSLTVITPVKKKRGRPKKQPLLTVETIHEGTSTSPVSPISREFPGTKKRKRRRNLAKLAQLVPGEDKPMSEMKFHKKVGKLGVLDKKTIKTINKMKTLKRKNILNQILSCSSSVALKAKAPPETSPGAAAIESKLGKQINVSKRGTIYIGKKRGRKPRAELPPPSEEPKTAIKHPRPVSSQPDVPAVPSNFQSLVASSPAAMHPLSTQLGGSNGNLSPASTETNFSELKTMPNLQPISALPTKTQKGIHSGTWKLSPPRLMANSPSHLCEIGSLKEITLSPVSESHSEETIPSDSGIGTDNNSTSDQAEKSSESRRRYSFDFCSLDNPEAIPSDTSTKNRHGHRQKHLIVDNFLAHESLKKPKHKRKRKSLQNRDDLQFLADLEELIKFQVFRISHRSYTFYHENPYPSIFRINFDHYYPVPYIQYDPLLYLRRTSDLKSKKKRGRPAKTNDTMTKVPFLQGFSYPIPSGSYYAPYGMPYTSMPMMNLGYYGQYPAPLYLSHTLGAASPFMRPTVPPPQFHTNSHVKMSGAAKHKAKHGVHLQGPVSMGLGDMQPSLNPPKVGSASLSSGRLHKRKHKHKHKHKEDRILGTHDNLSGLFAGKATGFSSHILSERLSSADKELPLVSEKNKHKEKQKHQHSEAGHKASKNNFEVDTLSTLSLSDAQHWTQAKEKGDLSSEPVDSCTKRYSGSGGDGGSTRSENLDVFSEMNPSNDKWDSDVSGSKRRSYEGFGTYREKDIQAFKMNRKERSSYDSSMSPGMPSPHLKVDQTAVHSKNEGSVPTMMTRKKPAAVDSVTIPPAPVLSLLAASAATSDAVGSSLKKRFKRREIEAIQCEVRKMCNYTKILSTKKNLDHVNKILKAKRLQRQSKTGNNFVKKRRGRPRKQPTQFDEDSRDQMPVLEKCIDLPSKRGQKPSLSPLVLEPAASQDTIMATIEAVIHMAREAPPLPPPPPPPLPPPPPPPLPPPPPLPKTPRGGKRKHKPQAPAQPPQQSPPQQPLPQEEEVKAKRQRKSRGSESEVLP
FLAG-SETBP1 p.(Glu858Lys) (Q9Y6X0-1, form named): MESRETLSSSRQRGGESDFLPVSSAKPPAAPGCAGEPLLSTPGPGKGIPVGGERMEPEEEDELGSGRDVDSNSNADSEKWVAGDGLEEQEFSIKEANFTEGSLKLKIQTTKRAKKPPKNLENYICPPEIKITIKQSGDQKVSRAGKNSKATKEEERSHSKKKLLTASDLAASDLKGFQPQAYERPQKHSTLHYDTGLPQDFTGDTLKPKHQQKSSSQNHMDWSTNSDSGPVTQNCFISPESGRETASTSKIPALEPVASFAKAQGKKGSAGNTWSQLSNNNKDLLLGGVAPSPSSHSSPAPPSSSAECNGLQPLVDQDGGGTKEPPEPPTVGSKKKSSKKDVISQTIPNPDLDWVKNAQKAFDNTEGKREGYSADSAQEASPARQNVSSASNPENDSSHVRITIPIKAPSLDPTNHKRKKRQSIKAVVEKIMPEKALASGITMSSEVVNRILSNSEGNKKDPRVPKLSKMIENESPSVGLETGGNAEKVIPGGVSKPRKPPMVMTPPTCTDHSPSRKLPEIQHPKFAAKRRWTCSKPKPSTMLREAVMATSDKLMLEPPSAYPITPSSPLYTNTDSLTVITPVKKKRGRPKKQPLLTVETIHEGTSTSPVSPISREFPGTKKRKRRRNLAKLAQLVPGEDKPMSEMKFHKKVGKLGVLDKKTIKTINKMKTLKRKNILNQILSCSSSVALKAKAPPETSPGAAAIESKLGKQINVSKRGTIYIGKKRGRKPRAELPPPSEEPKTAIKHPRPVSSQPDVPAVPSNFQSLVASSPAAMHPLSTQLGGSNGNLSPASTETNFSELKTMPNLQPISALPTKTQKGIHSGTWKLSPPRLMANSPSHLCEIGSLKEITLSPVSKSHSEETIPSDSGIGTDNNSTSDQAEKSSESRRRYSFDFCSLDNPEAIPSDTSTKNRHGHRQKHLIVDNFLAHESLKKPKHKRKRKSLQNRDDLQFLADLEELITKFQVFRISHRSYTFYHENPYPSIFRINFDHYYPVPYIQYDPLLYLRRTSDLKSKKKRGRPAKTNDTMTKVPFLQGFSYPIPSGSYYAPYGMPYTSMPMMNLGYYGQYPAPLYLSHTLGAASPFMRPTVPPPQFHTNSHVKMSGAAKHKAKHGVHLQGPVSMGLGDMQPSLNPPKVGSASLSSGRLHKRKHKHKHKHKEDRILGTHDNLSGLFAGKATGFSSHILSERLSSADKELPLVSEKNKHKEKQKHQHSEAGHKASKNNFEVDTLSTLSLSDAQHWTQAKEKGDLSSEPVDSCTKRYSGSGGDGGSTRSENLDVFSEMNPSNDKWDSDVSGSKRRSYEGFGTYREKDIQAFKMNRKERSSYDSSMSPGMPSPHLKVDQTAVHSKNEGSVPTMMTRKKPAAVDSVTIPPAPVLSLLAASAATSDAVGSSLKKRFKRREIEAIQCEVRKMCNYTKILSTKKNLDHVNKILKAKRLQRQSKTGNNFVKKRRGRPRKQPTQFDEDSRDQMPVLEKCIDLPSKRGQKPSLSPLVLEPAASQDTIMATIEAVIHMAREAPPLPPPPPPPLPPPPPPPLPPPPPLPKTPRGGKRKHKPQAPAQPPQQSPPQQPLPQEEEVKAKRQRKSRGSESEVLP

This assay has as its target GFP-SET (UniProt Q01105). The assay can be described thus: co-IP; HEK293T/17 cells co-transfected with GFP-SET and FLAG-SETBP1 (wild type or variants); lysed 48 h after transfection in Pierce IP Lysis Buffer; 400 µg protein immunoprecipitated with FLAG-agarose beads or GFP-Trap overnight at 4 °C; beads washed three times with PBS; immunoblot. On the technique in general: Immunoblotting shows a protein as a band on a membrane.
Consider “FLAG-SETBP1 p.(Leu957Pro) (from UniProt Q9Y6X0-1 1-1596)”, for which the binding result was “binds”.

For the substance “FLAG-SETBP1 p.(Thr962del) (from UniProt Q9Y6X0-1 1-1596)”, the binding entry is “binds”.

With “FLAG-SETBP1 wild type (full-length SETBP1 fused to a C-terminal Myc-DDK tag, pCMV-Entry-SETBP1) (from UniProt Q9Y6X0-1 1-1596)”, the binding result was “binds”.

For the substance “FLAG-SETBP1 p.(Glu858Lys) (from UniProt Q9Y6X0-1 1-1596)”, the binding entry is recorded as “binds”.
